Data on one molecule can be found in patent publication US10479793B2, “Imidazopyridazine compounds useful as modulators of IL-12, IL-23 and/or IFN alpha responses” (BRISTOL-MYERS SQUIBB COMPANY, priority 2015, dated 2019).

Chains of the proteins cited; added tags and fusions are not shown. A line that says so, or that is headed by a name, gives the form on record, which may keep a tag or linker. Residues count along the entry.
UniProt P29597, 575-869 with tags or gaps: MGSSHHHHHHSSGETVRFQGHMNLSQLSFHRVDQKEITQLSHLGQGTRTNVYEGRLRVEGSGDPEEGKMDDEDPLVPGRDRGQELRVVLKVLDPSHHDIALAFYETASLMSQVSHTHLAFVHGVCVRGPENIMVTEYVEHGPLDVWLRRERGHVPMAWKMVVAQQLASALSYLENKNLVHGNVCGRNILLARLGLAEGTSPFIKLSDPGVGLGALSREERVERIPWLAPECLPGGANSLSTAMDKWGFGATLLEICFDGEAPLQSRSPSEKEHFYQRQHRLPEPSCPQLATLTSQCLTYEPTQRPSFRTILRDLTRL

The target of this assay is recombinantly expressed His-tagged protein corresponding to amino acids 575-869 of human Tyk2 (Homo sapiens, UniProt P29597). Kind of assay: Probe displacement assay (scintillation proximity, tritiated probe). It is filed as binding. The settings on record: read-out: Probe Displacement (EC50); His-tagged Tyk2 (575-869) 2.5 nM, 40 nM radiolabeled probe, 30 minutes at room temperature. On the technique in general: Scintillation proximity formats need no separation of bound from free tracer.

Structures were worked out from names or drawings and are uncertain.

One may read the EC50 as the concentration at which the effect is half-maximal. Regarding `CNc1cc(Nc2cccnc2C(=O)NCC(C)(C)C)nn2c(C(=O)NC3CC3)cnc12`, the EC50 worked out at 10 nM.
